Assay [1] has as its target Tet3, endogenous in mouse cortex (mouse (endogenous in cortex)) (UniProt Q8BG87). Nature of the assay: co-IP; mouse cortex lysates; anti-Tet2 or anti-Tet3 antibody or control IgG pre-coupled to protein A/G magnetic beads, 6-12 h at 4°C; western blot. In general terms: A western blot detects proteins with antibodies after separation by electrophoresis.
Assay [2] concerns the target Tet2, endogenous in mouse cortex (mouse (endogenous in cortex)) (UniProt Q4JK59). The description is as above.

By UniProt entry, the sequences of proteins in these tests, tags left out.
UniProt Q8BG87: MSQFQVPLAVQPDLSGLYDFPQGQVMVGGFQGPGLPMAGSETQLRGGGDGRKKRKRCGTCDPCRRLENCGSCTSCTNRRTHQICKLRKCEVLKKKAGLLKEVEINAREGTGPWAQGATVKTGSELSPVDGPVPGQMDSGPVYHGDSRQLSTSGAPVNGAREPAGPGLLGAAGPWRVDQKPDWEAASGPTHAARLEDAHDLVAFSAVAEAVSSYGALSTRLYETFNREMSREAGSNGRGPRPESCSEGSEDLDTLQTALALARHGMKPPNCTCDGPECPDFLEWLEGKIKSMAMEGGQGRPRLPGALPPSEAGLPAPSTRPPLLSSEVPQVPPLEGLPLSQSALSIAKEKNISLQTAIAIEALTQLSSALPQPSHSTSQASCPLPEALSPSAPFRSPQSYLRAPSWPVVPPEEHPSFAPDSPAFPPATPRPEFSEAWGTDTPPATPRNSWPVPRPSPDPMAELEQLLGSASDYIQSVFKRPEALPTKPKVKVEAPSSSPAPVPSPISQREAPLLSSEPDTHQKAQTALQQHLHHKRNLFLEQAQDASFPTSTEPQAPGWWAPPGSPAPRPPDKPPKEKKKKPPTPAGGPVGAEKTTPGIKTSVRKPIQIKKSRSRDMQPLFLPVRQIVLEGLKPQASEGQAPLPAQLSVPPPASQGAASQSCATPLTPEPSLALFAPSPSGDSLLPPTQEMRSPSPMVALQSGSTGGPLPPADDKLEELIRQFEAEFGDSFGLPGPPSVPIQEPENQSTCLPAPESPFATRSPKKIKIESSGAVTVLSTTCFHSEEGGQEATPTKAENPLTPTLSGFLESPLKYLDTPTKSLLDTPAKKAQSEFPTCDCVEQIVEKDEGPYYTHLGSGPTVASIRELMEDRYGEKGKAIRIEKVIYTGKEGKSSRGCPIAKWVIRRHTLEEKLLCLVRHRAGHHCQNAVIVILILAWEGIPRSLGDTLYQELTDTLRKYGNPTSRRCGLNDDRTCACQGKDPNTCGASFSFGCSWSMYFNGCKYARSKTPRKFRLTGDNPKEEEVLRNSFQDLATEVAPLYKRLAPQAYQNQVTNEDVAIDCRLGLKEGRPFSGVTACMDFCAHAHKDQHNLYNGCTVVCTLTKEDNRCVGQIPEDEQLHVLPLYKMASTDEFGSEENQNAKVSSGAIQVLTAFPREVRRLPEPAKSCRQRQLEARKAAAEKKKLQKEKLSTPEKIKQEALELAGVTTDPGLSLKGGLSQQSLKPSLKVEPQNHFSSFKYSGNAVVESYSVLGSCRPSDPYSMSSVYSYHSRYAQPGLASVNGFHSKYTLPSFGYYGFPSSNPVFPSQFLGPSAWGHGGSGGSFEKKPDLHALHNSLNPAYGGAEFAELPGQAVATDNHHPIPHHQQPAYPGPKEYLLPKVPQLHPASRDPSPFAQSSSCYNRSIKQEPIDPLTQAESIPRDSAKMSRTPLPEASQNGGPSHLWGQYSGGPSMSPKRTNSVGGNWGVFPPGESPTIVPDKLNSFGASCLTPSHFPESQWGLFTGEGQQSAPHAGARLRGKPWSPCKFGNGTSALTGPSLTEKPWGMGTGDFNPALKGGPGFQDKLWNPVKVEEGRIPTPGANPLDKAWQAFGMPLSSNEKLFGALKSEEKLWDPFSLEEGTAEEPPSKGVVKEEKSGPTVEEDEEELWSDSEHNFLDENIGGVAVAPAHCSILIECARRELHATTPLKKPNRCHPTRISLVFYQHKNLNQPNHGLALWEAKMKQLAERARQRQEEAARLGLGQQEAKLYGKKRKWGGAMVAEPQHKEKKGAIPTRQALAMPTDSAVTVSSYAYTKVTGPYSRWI
UniProt Q4JK59: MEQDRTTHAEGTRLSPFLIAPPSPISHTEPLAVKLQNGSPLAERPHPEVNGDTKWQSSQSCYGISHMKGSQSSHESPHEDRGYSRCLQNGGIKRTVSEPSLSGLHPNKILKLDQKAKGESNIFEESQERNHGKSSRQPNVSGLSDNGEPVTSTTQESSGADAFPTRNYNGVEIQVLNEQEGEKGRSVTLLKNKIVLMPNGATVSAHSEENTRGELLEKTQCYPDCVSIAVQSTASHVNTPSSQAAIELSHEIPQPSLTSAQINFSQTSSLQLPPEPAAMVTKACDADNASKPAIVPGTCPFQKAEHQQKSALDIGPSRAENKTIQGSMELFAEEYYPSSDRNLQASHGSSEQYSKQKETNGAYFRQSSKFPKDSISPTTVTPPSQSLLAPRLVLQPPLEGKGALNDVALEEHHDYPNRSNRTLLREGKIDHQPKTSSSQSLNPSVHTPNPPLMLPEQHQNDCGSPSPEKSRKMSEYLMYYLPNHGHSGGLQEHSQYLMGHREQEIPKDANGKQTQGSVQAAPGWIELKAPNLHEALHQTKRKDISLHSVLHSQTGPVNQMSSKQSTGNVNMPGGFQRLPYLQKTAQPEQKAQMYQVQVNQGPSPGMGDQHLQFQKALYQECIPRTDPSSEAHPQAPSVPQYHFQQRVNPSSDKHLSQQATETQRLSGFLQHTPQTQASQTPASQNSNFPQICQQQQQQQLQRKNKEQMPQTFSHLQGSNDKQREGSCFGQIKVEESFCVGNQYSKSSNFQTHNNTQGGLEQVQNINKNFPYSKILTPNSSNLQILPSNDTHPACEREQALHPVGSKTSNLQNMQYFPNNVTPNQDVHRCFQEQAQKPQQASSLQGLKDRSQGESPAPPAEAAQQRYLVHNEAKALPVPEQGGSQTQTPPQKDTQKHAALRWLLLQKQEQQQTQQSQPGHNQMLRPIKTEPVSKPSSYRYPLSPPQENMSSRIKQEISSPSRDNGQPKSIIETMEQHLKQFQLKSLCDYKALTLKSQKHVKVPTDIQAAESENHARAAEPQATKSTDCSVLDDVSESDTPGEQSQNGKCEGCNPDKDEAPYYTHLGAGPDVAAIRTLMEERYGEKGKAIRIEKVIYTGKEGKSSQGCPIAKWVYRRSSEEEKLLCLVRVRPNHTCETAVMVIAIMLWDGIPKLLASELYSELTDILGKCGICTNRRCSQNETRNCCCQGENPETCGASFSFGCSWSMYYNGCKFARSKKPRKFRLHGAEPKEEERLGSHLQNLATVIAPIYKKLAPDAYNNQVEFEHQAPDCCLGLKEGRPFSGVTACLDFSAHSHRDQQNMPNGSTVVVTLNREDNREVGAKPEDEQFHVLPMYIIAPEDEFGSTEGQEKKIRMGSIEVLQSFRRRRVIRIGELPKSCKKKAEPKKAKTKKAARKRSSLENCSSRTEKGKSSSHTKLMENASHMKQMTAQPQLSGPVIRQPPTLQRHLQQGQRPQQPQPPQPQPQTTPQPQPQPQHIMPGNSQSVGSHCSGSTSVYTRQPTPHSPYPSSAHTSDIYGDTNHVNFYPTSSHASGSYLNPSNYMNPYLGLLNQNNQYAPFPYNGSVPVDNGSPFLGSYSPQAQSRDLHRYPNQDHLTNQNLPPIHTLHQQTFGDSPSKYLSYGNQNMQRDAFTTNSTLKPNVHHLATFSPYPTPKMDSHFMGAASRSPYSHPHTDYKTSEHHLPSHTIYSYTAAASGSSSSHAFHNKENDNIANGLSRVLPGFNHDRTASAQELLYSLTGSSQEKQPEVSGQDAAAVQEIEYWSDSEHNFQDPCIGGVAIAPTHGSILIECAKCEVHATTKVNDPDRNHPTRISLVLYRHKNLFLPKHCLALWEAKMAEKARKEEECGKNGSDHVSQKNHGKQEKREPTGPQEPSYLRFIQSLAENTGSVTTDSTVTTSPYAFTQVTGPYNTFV

Data on one molecule can be found in paper PMC10289295.

These are yes or no findings as the source states them, for the method shown. Binding seen in cells or lysates may run through a third protein. Some entries that bind do so weakly or less than the wild type.

B1: Non-POU domain-containing octamer-binding (NONO) protein, endogenous in mouse cortex (protein, UniProt Q99K48 1-473)
chain: MQSNKAFNLEKQNHTPRKHHQHHHQQHHQQQQQQQQQQPPPPIPANGQQASSQNEGLTIDLKNFRKPGEKTFTQRSRLFVGNLPPDITEEEMRKLFEKYGKAGEVFIHKDKGFGFIRLETRTLAEIAKVELDNMPLRGKQLRVRFACHSASLTVRNLPQYVSNELLEEAFSVFGQVERAVVIVDDRGRPSGKGIVEFSGKPAARKALDRCSEGSFLLTTFPRPVTVEPMDQLDDEEGLPEKLVIKNQQFHKEREQPPRFAQPGSFEYEYAMRWKALIEMEKQQQDQVDRNIKEAREKLEMEMEAARHEHQVMLMRQDLMRRQEELRRMEELHNQEVQKRKQLELRQEEERRRREEEMRRQQEEMMRRQQEGFKGTFPDAREQEIRMGQMAMGGAMGINNRGAMPPAPVPPGTPAPPGPATMMPDGTLGLTPPTTERFGQAATMEGIGAIGGTPPAFNRPAPGAEFAPNKRRRY
For B1, the binding entry in assay [1] and in assay [2] was “binds” each time.
